Results published in publication PMC4871572.
No constants are given. Whether binding was seen depends on the method and setting.

What was measured:
Assay in all cases: two-hybrid; yeast two-hybrid assays; bait and prey orientation and constructs not told
RUND-1 (C. elegans) = biological target: RUND-1 (C. elegans)
RAB-2 (C. elegans) = biological target: RAB-2 (C. elegans)
CCCP-1 (C. elegans) = biological target: CCCP-1 (C. elegans)

binding (RUND-1 (C. elegans)): no binding
binding (RAB-2 (C. elegans)): no binding
binding (CCCP-1 (C. elegans)): no binding
B1: EIPR-1 (protein, UniProt Q9U1Q0 1-362)
chain: MSECLMFGMDCEARCMTSMTADEENICFLVGTNNIKNDKNQVNKLFMDPEASRLMSKTFRHPAGEVRAIAAHPTKSTILATCTADFSSLGGTHSITIWNIEEDKRTLETVSRLPTEQVMSCLEWEPNSMKCAAMTPFRPEIQLLNMENGPEIVQNLKIPLENEEDEMFSATWSPHHDGNMLGVTGGRTAWCIDCRTDNEYLKIRDAHIHRTISMDFNPNLQHVIATCGDDGYVRIWDTRSTSSALTSLHPHAHWVWSVRFHPVHDQLLLTGGSDASVVLSCAQSVSSEQQIEFRDDEEEEEDDDLVEKLQDGQLERIDEHEDSVYACAWSSADPWTFASLSYDGRMIVSNVSRKHKYALMQL
